# Screening data, single-dose tests

By UniProt entry, the sequences of proteins in these tests, tags left out. Residues count along the entry.
UniProt I6X8D2, whole entry: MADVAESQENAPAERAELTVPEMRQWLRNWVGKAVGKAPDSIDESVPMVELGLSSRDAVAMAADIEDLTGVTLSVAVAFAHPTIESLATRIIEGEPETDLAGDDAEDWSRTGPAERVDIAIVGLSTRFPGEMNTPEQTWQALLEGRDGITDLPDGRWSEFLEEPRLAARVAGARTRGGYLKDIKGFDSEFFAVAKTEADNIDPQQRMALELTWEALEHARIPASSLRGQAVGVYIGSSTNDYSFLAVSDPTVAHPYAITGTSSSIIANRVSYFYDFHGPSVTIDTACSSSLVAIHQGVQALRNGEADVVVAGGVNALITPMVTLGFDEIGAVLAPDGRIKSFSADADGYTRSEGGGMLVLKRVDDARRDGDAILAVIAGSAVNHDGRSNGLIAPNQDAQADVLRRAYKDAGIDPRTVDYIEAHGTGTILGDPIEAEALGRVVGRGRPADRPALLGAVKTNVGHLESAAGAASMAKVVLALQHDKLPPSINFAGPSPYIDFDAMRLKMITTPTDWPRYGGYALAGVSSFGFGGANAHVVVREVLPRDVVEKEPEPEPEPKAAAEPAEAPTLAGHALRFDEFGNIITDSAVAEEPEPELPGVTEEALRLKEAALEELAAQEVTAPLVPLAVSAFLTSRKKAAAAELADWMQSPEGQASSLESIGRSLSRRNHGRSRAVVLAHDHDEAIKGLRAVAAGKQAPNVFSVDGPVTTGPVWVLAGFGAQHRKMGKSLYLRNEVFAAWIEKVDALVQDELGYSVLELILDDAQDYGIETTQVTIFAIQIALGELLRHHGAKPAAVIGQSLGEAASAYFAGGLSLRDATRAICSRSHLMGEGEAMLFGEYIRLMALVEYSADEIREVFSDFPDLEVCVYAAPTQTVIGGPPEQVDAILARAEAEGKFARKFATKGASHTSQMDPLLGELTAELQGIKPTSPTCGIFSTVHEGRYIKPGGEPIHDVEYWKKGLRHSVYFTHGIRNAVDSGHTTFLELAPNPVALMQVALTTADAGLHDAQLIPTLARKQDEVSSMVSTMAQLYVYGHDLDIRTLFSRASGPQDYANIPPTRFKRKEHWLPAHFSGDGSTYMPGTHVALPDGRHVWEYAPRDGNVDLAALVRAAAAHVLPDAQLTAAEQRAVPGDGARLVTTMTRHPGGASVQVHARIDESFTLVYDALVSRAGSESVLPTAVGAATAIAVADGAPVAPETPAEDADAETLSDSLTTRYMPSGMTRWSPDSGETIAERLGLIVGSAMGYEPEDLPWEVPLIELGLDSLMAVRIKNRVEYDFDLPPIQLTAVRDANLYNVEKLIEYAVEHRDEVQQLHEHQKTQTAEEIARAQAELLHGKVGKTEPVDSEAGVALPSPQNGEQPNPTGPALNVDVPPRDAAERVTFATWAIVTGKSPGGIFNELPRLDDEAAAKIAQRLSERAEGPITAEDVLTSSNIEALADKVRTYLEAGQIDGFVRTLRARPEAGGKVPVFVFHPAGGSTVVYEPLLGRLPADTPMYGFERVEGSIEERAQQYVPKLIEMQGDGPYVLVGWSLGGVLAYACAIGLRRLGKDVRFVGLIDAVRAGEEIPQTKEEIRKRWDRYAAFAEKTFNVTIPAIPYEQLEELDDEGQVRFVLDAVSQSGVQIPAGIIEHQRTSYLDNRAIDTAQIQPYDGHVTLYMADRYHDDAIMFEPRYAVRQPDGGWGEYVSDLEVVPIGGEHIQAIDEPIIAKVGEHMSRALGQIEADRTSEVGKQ
UniProt A4I591, 1-473: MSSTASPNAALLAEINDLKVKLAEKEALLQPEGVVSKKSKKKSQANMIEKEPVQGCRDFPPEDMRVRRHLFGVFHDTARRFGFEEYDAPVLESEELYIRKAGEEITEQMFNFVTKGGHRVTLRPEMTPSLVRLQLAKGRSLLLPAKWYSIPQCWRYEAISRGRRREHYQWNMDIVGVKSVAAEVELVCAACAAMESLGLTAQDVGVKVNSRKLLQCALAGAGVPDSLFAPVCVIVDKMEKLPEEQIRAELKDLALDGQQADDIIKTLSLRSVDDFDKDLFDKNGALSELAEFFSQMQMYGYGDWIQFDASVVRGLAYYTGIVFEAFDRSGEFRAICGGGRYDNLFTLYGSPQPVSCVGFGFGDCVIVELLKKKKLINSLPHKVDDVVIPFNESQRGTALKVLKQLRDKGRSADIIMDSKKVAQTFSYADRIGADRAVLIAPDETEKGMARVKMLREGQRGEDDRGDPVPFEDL
UniProt P9WPC5, whole entry: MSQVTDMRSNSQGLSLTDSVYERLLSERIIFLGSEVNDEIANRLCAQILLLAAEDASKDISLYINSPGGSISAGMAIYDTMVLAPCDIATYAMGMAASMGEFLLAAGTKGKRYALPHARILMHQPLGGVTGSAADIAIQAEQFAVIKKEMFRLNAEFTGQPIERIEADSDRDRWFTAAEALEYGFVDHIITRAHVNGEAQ
UniProt P9WPC3, whole entry partner: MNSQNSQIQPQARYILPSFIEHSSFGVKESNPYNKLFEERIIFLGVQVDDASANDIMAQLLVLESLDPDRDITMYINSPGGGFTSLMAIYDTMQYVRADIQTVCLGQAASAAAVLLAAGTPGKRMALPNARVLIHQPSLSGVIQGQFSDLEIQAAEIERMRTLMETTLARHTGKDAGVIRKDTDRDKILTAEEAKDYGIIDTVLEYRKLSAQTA
UniProt P9WNZ1, whole entry: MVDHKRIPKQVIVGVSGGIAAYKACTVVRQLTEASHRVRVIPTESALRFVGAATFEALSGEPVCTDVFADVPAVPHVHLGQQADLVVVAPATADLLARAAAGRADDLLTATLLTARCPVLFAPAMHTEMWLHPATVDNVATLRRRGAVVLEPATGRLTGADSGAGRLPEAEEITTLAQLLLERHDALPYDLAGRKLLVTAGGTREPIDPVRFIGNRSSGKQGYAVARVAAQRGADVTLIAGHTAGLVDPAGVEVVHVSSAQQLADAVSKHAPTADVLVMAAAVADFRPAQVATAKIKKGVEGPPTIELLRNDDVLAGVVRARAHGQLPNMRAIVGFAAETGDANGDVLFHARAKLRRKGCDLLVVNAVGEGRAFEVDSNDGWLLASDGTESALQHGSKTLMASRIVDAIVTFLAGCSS

Data taken from ChEMBL document CHEMBL3988442, “University of Dundee, Small-Polar-MMV Screening Library” (2021).

Pks13 thioesterase: 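Enzyme assay of the thioesterase domain of polyketide synthase 13; the read-out is not stated. Target: Polyketide synthase Pks13, Mycobacterium tuberculosis (UniProt I6X8D2). Tested at 30 µM. Higher reads as stronger inhibition (inferred from which compounds were picked for retests). About 67,000 compounds were tested under these conditions; 0.46% (about 300) showed 50% or more at least once.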
LiHisRS: 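Histidine-tRNA ligase, Leishmania infantum (UniProt A4I591). Enzyme assay of histidyl-tRNA synthetase; the read-out is not stated. Concentration: 30 µM. Direction is inferred from retests: higher values go with stronger inhibition. The assay is labelled LdHisRS but filed under L. infantum. About 69,000 compounds were tested under these conditions; 0.6% (about 410) showed 50% or more at least once.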
Leishmania in macrophages: 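Cell assay of Leishmania donovani living inside macrophages; the read-out is not stated. Compounds at 30 µM. The record gives no direction; compounds that gave an IC50 in retests scored well above the rest, so higher reads as stronger inhibition. Of about 69,000 compounds tested this way, about 1,000 (1.5%) reached 50% or more in at least one test.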
ClpP1P2: 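ClpP1P2, Mycobacterium tuberculosis (UniProt P9WPC5 and UniProt P9WPC3). Protease assay of ClpP1P2, read by the AMC dye that it sets free. Compounds at 50 µM. Higher reads as stronger inhibition, judged from the few compounds that gave an IC50. Most other retested compounds had strongly negative values. Of about 69,000 compounds tested this way, about 10 (0.015%) reached 50% or more in at least one test.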
Toxoplasma: 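Assay of Toxoplasma gondii numbers, read through their beta-galactosidase reporter with a colour substrate. Compounds at 10 µM. The record gives no direction; the compounds picked for IC50 retests had high values, so higher reads as fewer parasites. About 67,000 compounds were tested under these conditions; 0.38% (about 260) showed 50% or more at least once.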
CoaBC: 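Coenzyme A biosynthesis protein CoaBC, Mycobacterium tuberculosis (UniProt P9WNZ1). Enzyme assay of CoaBC with a phosphate dye (Biomol Green) read at 650 nm. Tested at 30 µM. Direction is inferred from only a few compounds that gave an IC50; most scored high, so higher reads as stronger inhibition. Most strong results did not repeat in a second test. Size under these conditions: about 67,000 compounds, about 40 of them at 50% or above in at least one test.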

Results are given as percent effect.
How 0% and 100% were set is not recorded. Most values in the screen are low, and negative values occur.
This is an unselected part of the compounds tested.
Two or more numbers in one place are separate tests of the same structure; such repeats can differ widely.
A dash means the value is not listed here; it may have been measured.

compound,Pks13 thioesterase,LiHisRS,Leishmania in macrophages,ClpP1P2,Toxoplasma,CoaBC
Oc1ccccc1CN1CCCCCC1c1cccs1 (centres unmarked),12.97,17.98,-15.22,-0.6988,10.91,3.008
Clc1ccc(-n2cnnc2CCCN2CCOCC2)cc1,2.561,15.04,22.84,6.181,2.818,4.459
CCS(=O)(=O)CC(=O)Nc1ccccc1N1CCc2ccccc21,-12.16,20.43,-2.437,-2.492,-4.478,2.558
O=C(c1ccc(=O)[nH]n1)N1CC(c2nc(Cc3ccccc3)no2)C1,-16.87,21.15,14.14,-5.706,-2.189,7.889
CC(C)C(=O)N(C)Cc1nnc2n1CCCCC2,8.229,-23.94,-15.28,10.16,0,-
COc1cc(N2CCC3(CC2)OCC(=O)NC3C)ncn1 (centres unmarked),-24.46,11.54,6.098,-7.388,-16.82,-1.818
Cc1nc(Nc2cnccn2)cc(C2CCN(CCO)C2)n1 (centres unmarked),4.012,14,-,-1.013,-,7.807
COC1CCN(C(=O)NCC(N)=O)CC(=O)N(C)c2ccccc21 (centres unmarked),29.1,14.29,1.235,-2.169,-42.13,2.179
CN1CC=C(c2noc(CCC(=O)N3CCc4ccccc4C3)n2)CC1,-13.2,23.68,-26.56 and 20.73,-16.64,0.2319,1.519
CC(=O)NCCNC(=O)c1cc(COc2ccccc2)[nH]n1,-5.62,7.08,19.88,-10.97,6.245,-1.132
COc1ccc(CN2CCC(C(N)=O)C2)c(Br)c1OC (centres unmarked),-10.75,19.1,46.15,0.6102,10.21,6.51
CCN1CCN(c2ccc(F)cc2C(C)NCc2noc(C)n2)CC1 (centres unmarked),-7.766,1.887,34.11,-17.37,1.542,-38.33
CCc1nnc(SC2CCN(c3ccccc3F)C2=O)n1C (centres unmarked),-11.82,15.49,27.26,4.111,4.207,-
Cc1nccc(N[C@H]2CN(CCS(C)(=O)=O)C[C@@H]2C2CC2)n1,-16.26,11.48,33.64,-13.14,28.22,3.836
CC(CN(C)C)Nc1nc(O)cc(Cc2ccccc2F)n1 (centres unmarked),27.78,17.45,-8.678,-7.417,-4.316,13.7
c1cncc(-n2cnnc2CC2CCNCC2)c1,-29.29,14.53,6.192,3.474,-3.662,-7.143
CC(C)CN1C(=O)CO[C@@H]2CN(C(=O)CC(F)(F)F)C[C@H]21,-,15.79,-,5.372,-,-1.057
Cc1nc(C)n(CC2CCCN2CC(=O)Nc2ccnn2C(C)C)n1 (centres unmarked),-6.911,13.64,8.452,7.213,-7.47,4.508
CN(CCc1cnn(C)c1)C(=O)CN1C(=O)OC[C@@H]1c1ccccc1,-23.53,19.78,25.15,-5.635,-3.403,0.122
CCOc1cc(CNCCCn2ccnc2)cc(Cl)c1OC,9.269,6.667,37.96,9.377,-19.52,-35.76
CC1C(=O)Nc2cccnc2N1S(=O)(=O)c1cc(F)cc(F)c1 (centres unmarked),-,38.24,-14.47,-4.31,2.526,11
O=C(C1CCC1)N1CCn2c(COc3ncccn3)nnc2C1,-3.602,11.76,-19.57,-3.084,-4.415,-5.019
CN1CCOC(CNCc2cccc(OC(F)(F)F)c2)C1 (centres unmarked),-18.98,12.5,34.05,10.39,-16.48,24.56 and 20.1
Cc1nc(C)n(CC2CCCN2CC(=O)N(C)Cc2ccc(C)o2)n1 (centres unmarked),36.03,15.07,4.54,-0.165,-1.896,-0.3205
Cc1[nH]ccc1C(=O)N(C)C1CC(=O)N(Cc2ccccc2)C1=O (centres unmarked),-32.08,10.26,4.603,-15.92,10.95,-0.8547
O=C(NCC1(N2CCOCC2)CCSC1)Nc1ccccn1 (centres unmarked),-16.83,20.55,31.4,0.7077,-3.666,3.526
CC(C)Cc1noc(CN(C)c2cc(C(C)C)nc3ccnn23)n1,3.541,14.75,17.04,1.152,-39.34,4.978
CCCc1noc(CCC(=O)N2CCCC(n3ccnc3C)C2)n1 (centres unmarked),-12.8,0,12.27,4.353,4.273,5.556
Cc1cnc2n(c1=O)C(CC(=O)NCc1ccco1)CS2 (centres unmarked),7.12,17.98,18.57,-3.416,8.516,0.8424
O[C@]12CCNC[C@H]1CN(c1nccc3ccccc13)CC2,-2.315,2.041,-,-6.275,-,2.526
CCc1cc(-c2ccnc3c2ccn3C)nc(N2CCOCC2)n1,15.68,19.05,16.25,-5.244,-8.739,-1.456
Cc1noc([C@@]23CCO[C@@H]2CCN(C(=O)c2cc(C)c(C)s2)C3)n1,-14.5,5.556,-,-23.21,-,-0.3226
CCNC(=O)c1ccc(NC2CCOC3(CCCC3)C2)nn1 (centres unmarked),4.897,2.073,-2.985,15.35,1.033,-0.8917
C[C@@H]1CN(S(=O)(=O)c2ccc(F)cc2Cl)C[C@]1(C)O,-32.14,8.571,8.072,-6.09,-5.727,-7.692

Once more, the final 3:

For Cc1noc([C@@]23CCO[C@@H]2CCN(C(=O)c2cc(C)c(C)s2)C3)n1 the result was Pks13 thioesterase: -14.5%; LiHisRS: 5.556%; ClpP1P2: -23.21%; CoaBC: -0.3226%.
For CCNC(=O)c1ccc(NC2CCOC3(CCCC3)C2)nn1 (centres unmarked) the result was Pks13 thioesterase: 4.897%; LiHisRS: 2.073%; Leishmania in macrophages: -2.985%; ClpP1P2: 15.35%; Toxoplasma: 1.033%; CoaBC: -0.8917%.
For C[C@@H]1CN(S(=O)(=O)c2ccc(F)cc2Cl)C[C@]1(C)O the result was Pks13 thioesterase: -32.14%; LiHisRS: 8.571%; Leishmania in macrophages: 8.072%; ClpP1P2: -6.09%; Toxoplasma: -5.727%; CoaBC: -7.692%.